# Data published in the supplement of paper PMC9135407.
# Values joined by “and” are separate entries in the source; they are usually repeats but may differ in a detail not shown here. Equal values may be shown once. Where a name gives a salt, the structure may show the parent alone. ± gives the standard deviation of the averaged measurements. Some of the results follow. Part of the spread comes from offsets between plates or batches.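 Assay uses culture-activated primary human stellate myofibroblasts; lipid droplet recovery indicates inactivation. Measured: proportion of Hoechst-counted cells over a plate-specific Bodipy cutoff, duplicate wells, DMSO and nortriptyline as per-plate negative and positive controls. A hit scores, control-normalized, above the plate's top-tenth-percentile nortriptyline wells or ranks among its three best wells. Final well concentrations not reported.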
# Test system: primary human hepatic stellate cells (donor 1)
# Assay: percent Bodipy-positive cells; higher = more lipid droplet accumulation
# Conditions: 48 h
# [1] = library stock concentration: 10 mM
# [2] = library stock concentration: 6.4 mM
# [3] = library stock concentration: 1 mM
# [4] = library stock concentration: 3.33 mM
# [5] = library stock concentration: 80 uM
# [6] = library stock concentration: 400 uM
# [7] = library stock concentration: 2 mM
compound,measurement,setting,value
COc1cccc(OC)c1C(=O)N[C@@H]1C(=O)N2[C@@H]1SC(C)(C)[C@@H]2C(=O)O [Methicillin sodium],percent Bodipy-positive cells,library stock concentration: 5 mM,2.84 ± 0.32%
same,percent Bodipy-positive cells,[1],23.9 ± 2.8%
Cc1ccc(S(=O)(=O)NC(=O)NN2CCCCCC2)cc1,percent Bodipy-positive cells,[1],34 ± 3.2%
Cc1ccc(S(=O)(=O)NC(=O)NN2CCCCCC2)cc1 [Tolazamide],percent Bodipy-positive cells,,23.6 ± 0.68%
same,percent Bodipy-positive cells,[2],9.44% and 18.4%
same,percent Bodipy-positive cells,[1],12.5% and 22.9%
same,percent Bodipy-positive cells,library stock concentration: 16.1 mM,20.5 ± 1.4%
COc1cc2c(CCNC(C)=O)c[nH]c2cc1Cl [6-Chloromelatonin],percent Bodipy-positive cells,[1],37.1% and 12.8%
CCCCC[C@H](O)/C=C/[C@H]1[C@@H](O)CC(=O)[C@@H]1CCCCCCC(=O)O [11.beta.-Prostaglandin E1],percent Bodipy-positive cells,[3],18.5 ± 6.1%
Cn1cccc1/C=C1\C(=O)NC(=O)c2ccccc21,percent Bodipy-positive cells,[1],13.2 ± 5.2%
CN(C)c1ccc(C(=O)NCCCCCC(=O)NO)cc1,percent Bodipy-positive cells,[3],19 ± 5%
CCCCCC(=O)/C=C/[C@@H]1[C@@H](CCCCCCC(=O)O)[C@@H](O)C[C@H]1O [15-keto Prostaglandin F1.alpha.],percent Bodipy-positive cells,[3],13.8 ± 4.1%
Cl.c1cc(OCCN2CCCCC2)cc(-c2n[nH]c3ccc(-c4nc[nH]n4)cc23)c1,percent Bodipy-positive cells,[1],97.2 ± 2.4%
"C=CCn1c(=O)c2c(nc(-c3ccc(S(=O)(=O)O)cc3)n2C)n(C)c1=O [1-Allyl-3,7-dimethyl-8-p-sulfophenylxanthine]",percent Bodipy-positive cells,[1],35.81 ± 0.3%
C[C@]12CC[C@@H]3c4ccc(OS(=O)(=O)O)cc4CC[C@H]3[C@@H]1CCC2=O,percent Bodipy-positive cells,[1],17.1 ± 6.8%
C[C@]12CC[C@@H]3c4ccc(OS(=O)(=O)O)cc4CC[C@H]3[C@@H]1CCC2=O [Estropipate],percent Bodipy-positive cells,,9.56 ± 2%
CCOC(=O)c1ccc(N)cc1 [Benzocaine],percent Bodipy-positive cells,,10.9 ± 0.78%
same,percent Bodipy-positive cells,[4],10.6 ± 2.5%
same,percent Bodipy-positive cells,[1],37.8% and 12.8%
same,percent Bodipy-positive cells,library stock concentration: 12.1 mM,3.14 ± 0.27%
CCCCCCCCCCCCc1ccc(S(=O)(=O)Nc2nncs2)cc1,percent Bodipy-positive cells,[4],10.8 ± 3.4%
same,percent Bodipy-positive cells,[1],28.8 ± 3.3%
CC1c2ccccc2CN1CC1=NCCN1 (centres undefined),percent Bodipy-positive cells,[1],6.49 ± 0.93%
CCCCCCCCCCCCCCC(F)C(=O)O (centres undefined) [2-Fluoropalmitic Acid],percent Bodipy-positive cells,[3],8.13 ± 1.1%
CCCCCCCCCCCCCCC(F)C(=O)O (centres undefined) [2-Fluoropalmitic acid],percent Bodipy-positive cells,[3],9.9 ± 8.9%
OC(CCCN1CCCCC1)(c1ccccc1)c1ccccc1 [Diphenidol HCl],percent Bodipy-positive cells,[4],14.4 ± 1.6%
same,percent Bodipy-positive cells,[1],55.4 ± 14%
OC(CCCN1CCCCC1)(c1ccccc1)c1ccccc1 [Diphenidol hydrochloride],percent Bodipy-positive cells,,43.6 ± 2.5%
CCN(CC)CCOC(=O)C(c1ccccc1)c1ccccc1 [Adiphenine HCl],percent Bodipy-positive cells,[4],9.97 ± 0.49%
same,percent Bodipy-positive cells,[1],20.4 ± 7.9%
CCN(CC)CCOC(=O)C(c1ccccc1)c1ccccc1 [Adiphenine hydrochloride],percent Bodipy-positive cells,,31.6 ± 2%
same,percent Bodipy-positive cells,library stock concentration: 5.7 mM,18.7 ± 0.38%
same,percent Bodipy-positive cells,[1],47.6 ± 4.3%
CC(C)(C)CC(C)(C)c1ccc(O)c(Cc2ccc(Cl)cc2Cl)c1 [Clofoctol],percent Bodipy-positive cells,[1],37 ± 1.2%
COc1ccc2nc3n[nH]c(C)c3c(NCCOCCO)c2c1,percent Bodipy-positive cells,[5],16.3 ± 6.9%
same,percent Bodipy-positive cells,[6],11.8 ± 5.6%
same,percent Bodipy-positive cells,[7],15.3 ± 1.3%
same,percent Bodipy-positive cells,[4],33.3 ± 6.7%
same,percent Bodipy-positive cells,[1],21.1 ± 2.4%
Cc1ccc([N+](=O)[O-])cc1S(=O)(=O)N(C)/N=C/c1cnc2ccc(Br)cn12,percent Bodipy-positive cells,[6],67.3 ± 14%
same,percent Bodipy-positive cells,[7],53.6 ± 8.2%
same,percent Bodipy-positive cells,[4],70.8 ± 10%
same,percent Bodipy-positive cells,[1],63.7% and 54.3%
COc1cc(-c2ccc(=O)[nH]n2)ccc1OC(F)F,percent Bodipy-positive cells,[1],26.1 ± 3.6%
COc1cc(-c2ccc(=O)[nH]n2)ccc1OC(F)F [Zardaverine],percent Bodipy-positive cells,,37.3 ± 4.3%
same,percent Bodipy-positive cells,library stock concentration: 7.5 mM,32.2 ± 12%
same,percent Bodipy-positive cells,[1],34.5 ± 4.5%
CCCCC[C@@](C)(O)/C=C/[C@@H]1[C@@H](C/C=C\CCCC(=O)OC)[C@@H](O)C[C@H]1O [15(R)-15-methyl Prostaglandin F2.alpha. methyl ester],percent Bodipy-positive cells,[3],20.2 ± 2.4%
O=c1cc(-c2ccc(O)cc2)oc2c([C@@H]3O[C@H](CO)[C@@H](O)[C@H](O)[C@H]3O)c(O)cc(O)c12 [Vitexin],percent Bodipy-positive cells,,8.52 ± 0.42%
CC[N+](CC)(CC)CC(=O)Nc1c(C)cccc1C [Lidocaine N-ethyl bromide quaternary salt],percent Bodipy-positive cells,[1],22.6 ± 2.3%
CC[N+](CC)(CC)CC(=O)Nc1c(C)cccc1C [QX 314 chloride],percent Bodipy-positive cells,[1],8.61 ± 0.58%
CC[N+](CC)(CC)CC(=O)Nc1c(C)cccc1C [QX 314 bromide],percent Bodipy-positive cells,[1],9.77 ± 5.9%
c1ccc(COCCCc2c[nH]cn2)cc1 [Proxyfan Oxalate],percent Bodipy-positive cells,[1],7.58 ± 1.3%
CCCCNc1c(C(=O)OCC)c(C)nc2c1cnn2CC [Tracazolate],percent Bodipy-positive cells,[1],54.4 ± 8.3%
CCCCNc1c(C(=O)OCC)c(C)nc2c1cnn2CC [Tracazolate hydrochloride],percent Bodipy-positive cells,,7.99 ± 2%
same,percent Bodipy-positive cells,[1],12.9 ± 9.2%
CNCCCC12CCC(c3ccccc31)c1ccccc12.Cl [Maprotiline hydrochloride],percent Bodipy-positive cells,[2],63.9 ± 2.2%
same,percent Bodipy-positive cells,[1],87.3% and 100%
COCCOc1cc2ncnc(Cl)c2cc1OCCOC,percent Bodipy-positive cells,[1],21.3 ± 6%
CCCCC1(COC(=O)CCC(=O)O)C(=O)N(c2ccccc2)N(c2ccccc2)C1=O [Suxibuzone],percent Bodipy-positive cells,,7.72 ± 1.4%
same,percent Bodipy-positive cells,[1],38.7 ± 8.2%
COc1cc(NC(C)CCCN)c2ncccc2c1 (centres undefined) [Primaquine Diphosphate],percent Bodipy-positive cells,[4],8.62 ± 0.3%
COc1cc(NC(C)CCCN)c2ncccc2c1 (centres undefined) [Primaquine phosphate],percent Bodipy-positive cells,library stock concentration: 7.7 mM,8.3 ± 1.6%
COc1cc(NC(C)CCCN)c2ncccc2c1 (centres undefined) [Primaquine diphosphate],percent Bodipy-positive cells,,27.4 ± 4.5%
same,percent Bodipy-positive cells,library stock concentration: 4.4 mM,18.9 ± 1.5%
same,percent Bodipy-positive cells,[1],18.4 ± 0.39%
O=c1[nH]c(=O)n([C@H]2C[C@H](O)[C@@H](CO)O2)cc1Br [5-Bromo-2'-deoxyuridine],percent Bodipy-positive cells,[1],61.1 ± 4.3%
CN(C)CCOc1ccc(/C(=C(/CCCl)c2ccccc2)c2ccccc2)cc1.O=C(O)CC(O)(CC(=O)O)C(=O)O,percent Bodipy-positive cells,[1],93.2 ± 1.1%
COc1cc(OC)c(/C=C/S(=O)(=O)Cc2ccc(OC)c(NCC(=O)O)c2)c(OC)c1,percent Bodipy-positive cells,[5],12.8 ± 5.8%
same,percent Bodipy-positive cells,[6],19.7 ± 13%
same,percent Bodipy-positive cells,[7],25.1 ± 3.8%
same,percent Bodipy-positive cells,[4],41.2 ± 10%
same,percent Bodipy-positive cells,[1],45% and 24%
CN(C)[C@@H]1C(O)=C(C(N)=O)C(=O)[C@@]2(O)C(O)=C3C(=O)c4c(O)cccc4[C@@](C)(O)[C@H]3[C@H](O)[C@@H]12 [Oxytetracycline dihydrate],percent Bodipy-positive cells,,20 ± 2.4%
CN(C)[C@@H]1C(O)=C(C(N)=O)C(=O)[C@@]2(O)C(O)=C3C(=O)c4c(O)cccc4[C@@](C)(O)[C@H]3[C@H](O)[C@@H]12 [Oxytetracycline hydrochloride],percent Bodipy-positive cells,[1],28.5 ± 2.3%
CN(C)[C@@H]1C(O)=C(C(N)=O)C(=O)[C@@]2(O)C(O)=C3C(=O)c4c(O)cccc4[C@@](C)(O)[C@H]3[C@H](O)[C@@H]12 [Oxytetracycline],percent Bodipy-positive cells,library stock concentration: 4 mM,5.32 ± 1.1%
same,percent Bodipy-positive cells,[1],11.9 ± 4.2%
OC(CN1CCN(c2cccc(Cl)c2)CC1)C(c1ccccc1)c1ccccc1 (centres undefined),percent Bodipy-positive cells,[4],16.5 ± 6.5%
same,percent Bodipy-positive cells,[1],20.5% and 18.9%

# 2 entries from above in another layout.
compound | measurement | setting | value
CC[N+](CC)(CC)CC(=O)Nc1c(C)cccc1C [QX 314 bromide] | percent Bodipy-positive cells | [1] | 9.77 ± 5.9%
CCCCNc1c(C(=O)OCC)c(C)nc2c1cnn2CC [Tracazolate hydrochloride] | percent Bodipy-positive cells |  | 7.99 ± 2%

# In a second layout: entries from further up
compound	measurement	setting	value
CCCCCC(=O)/C=C/[C@@H]1[C@@H](CCCCCCC(=O)O)[C@@H](O)C[C@H]1O [15-keto Prostaglandin F1.alpha.]	percent Bodipy-positive cells	[3]	13.8 ± 4.1%
Cl.c1cc(OCCN2CCCCC2)cc(-c2n[nH]c3ccc(-c4nc[nH]n4)cc23)c1	percent Bodipy-positive cells	[1]	97.2 ± 2.4%
C[C@]12CC[C@@H]3c4ccc(OS(=O)(=O)O)cc4CC[C@H]3[C@@H]1CCC2=O	percent Bodipy-positive cells	[1]	17.1 ± 6.8%
COc1cc(NC(C)CCCN)c2ncccc2c1 (centres undefined) [Primaquine diphosphate]	percent Bodipy-positive cells	[1]	18.4 ± 0.39%
